Data from article PMC11926880, “Procognitive Potential of Neuroprotective Triazine 5-HT6 Receptor Antagonists Tested on Chronic Activity In Vivo in Rats: Computer-Aided Insight into the Role of Chalcogen-Differences on the Pharmacological Profile” (ACS Chemical Neuroscience, 2025).
Where “and” joins values, the source holds several entries; their conditions need not be identical. Equal values may be shown once.

Tested on: rats
Experiment: NORT, total exploratory time in T2 session
Assay type: in vivo, rat
[1] = 0.3 mg/kg i.p. 21 days + (+)MK-801 0.1 mg/kg (Table 10)
[2] = 1.0 mg/kg i.p. 21 days + (+)MK-801 0.1 mg/kg (Table 9)

Row | Structure (SMILES) | total exploratory time in T2 session ± SEM ((+)MK-801 0.1 mg/kg + vehicle (Table 9), 0.1 mg/kg) | total exploratory time in T2 session ± SEM ((+)MK-801 0.1 mg/kg + vehicle (Table 10)) [s] | total exploratory time in T2 session ± SEM [1] [s] | total exploratory time in T2 session ± SEM [2] | total exploratory time in T2 session ± SEM (0.3 mg/kg i.p. 21 days + (+)MK-801 0.1 mg/kg (Table 9))
1 | C[C@]12N[C@H](Cc3ccccc31)c1ccccc12 [(+)MK-801] | 39.43 ± 3.40 s and 47.29 ± 3.63 s and 33.38 ± 2.32 s | 39.4 ± 3.4 | – | – | –
2 | CN1CCN(c2nc(N)nc(C(C)(C)Sc3ccc4ccccc4c3)n2)CC1 [WA-22, 4-(4-methylpiperazin-1-yl)-6-(2-(naphthalen-2-ylthio)propan-2-yl)-1,3,5-triazin-2-amine] | – | – | 25.3 ± 4.5 | 43.62 ± 4.26 s | –
3 | COc1cc2c(cc1OC)C(=O)C(CC1CCN(Cc3ccccc3)CC1)C2 (stereo not shown) [donepezil, reference compound] | – | – | 35.1 ± 3.6 | 40.54 ± 3.20 F(2.19) = 1.1727; NS s | 35.14 ± 3.62 F(2,18) = 0.6502; NS s
